Data reported in publication doi:10.1101/2023.11.06.565834.
Numbering of substitutions follows the chain as printed. No constants are given. Whether binding was seen depends on the method and setting. In cells and extracts the contact can be indirect. Some binding calls cover weakened binding; strength is not graded here. Sequences can lack the tags named with a protein.

T1: GST-CEP152 domain 1 (D1, residues 1-512) (human) (UniProt O94986)
T1 sequence: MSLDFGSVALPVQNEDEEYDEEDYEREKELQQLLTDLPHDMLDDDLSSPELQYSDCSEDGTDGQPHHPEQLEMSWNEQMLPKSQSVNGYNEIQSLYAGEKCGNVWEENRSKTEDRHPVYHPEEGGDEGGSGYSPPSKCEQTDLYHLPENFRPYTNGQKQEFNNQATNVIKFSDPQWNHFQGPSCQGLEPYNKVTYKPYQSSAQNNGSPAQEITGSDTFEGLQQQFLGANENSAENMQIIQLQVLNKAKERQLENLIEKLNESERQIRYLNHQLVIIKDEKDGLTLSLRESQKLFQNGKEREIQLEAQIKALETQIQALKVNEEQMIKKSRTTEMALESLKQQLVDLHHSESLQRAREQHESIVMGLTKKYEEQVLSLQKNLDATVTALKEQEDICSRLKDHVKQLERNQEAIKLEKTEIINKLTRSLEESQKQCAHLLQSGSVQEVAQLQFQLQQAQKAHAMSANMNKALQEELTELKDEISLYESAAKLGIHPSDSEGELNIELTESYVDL

B1: His-MBP PLK4 PBD (571-970 residues) (domain or fragment, UniProt O00444 571-970)
chain: SKTRGMEPPWGYQNRTLRSITSPLVAHRLKPIRQKTKKAVVSILDSEEVCVELVKEYASQEYVKEVLQISSDGNTITIYYPNGGRGFPLADRPPSPTDNISRYSFDNLPEKYWRKYQYASRFVQLVRSKSPKITYFTRYAKCILMENSPGADFEVWFYDGVKIHKTEDFIQVIEKTGKSYTLKSESEVNSLKEEIKMYMDHANEGHRICLALESIISEEERKTRSAPFFPIIIGRKPGSTSSPKALSPPPSVDSNYPTRERASFNRMVMHSAASPTQAPILNPSMVTNEGLGLTTTASGTDISSNSLKDCLPKSAQLLKSVFVKNVGWATQLTSGAVWVQFNDGSQLVVQAGVSSISYTSPNGQTTRYGENEKLPDYIKQKLQCLSSILLMFSNPTPNFH
B2: His-MBP PLK4 CPB (571-820 residues) (domain or fragment, UniProt O00444 571-820)
chain: SKTRGMEPPWGYQNRTLRSITSPLVAHRLKPIRQKTKKAVVSILDSEEVCVELVKEYASQEYVKEVLQISSDGNTITIYYPNGGRGFPLADRPPSPTDNISRYSFDNLPEKYWRKYQYASRFVQLVRSKSPKITYFTRYAKCILMENSPGADFEVWFYDGVKIHKTEDFIQVIEKTGKSYTLKSESEVNSLKEEIKMYMDHANEGHRICLALESIISEEERKTRSAPFFPIIIGRKPGSTSSPKALSPPP
B3: His-MBP PLK4 L2+PB3 (814-970 residues) (domain or fragment, UniProt O00444 814-970)
chain: KALSPPPSVDSNYPTRERASFNRMVMHSAASPTQAPILNPSMVTNEGLGLTTTASGTDISSNSLKDCLPKSAQLLKSVFVKNVGWATQLTSGAVWVQFNDGSQLVVQAGVSSISYTSPNGQTTRYGENEKLPDYIKQKLQCLSSILLMFSNPTPNFH
B4: His-MBP PLK4 PBD E774* mutant (domain or fragment, UniProt O00444 571-773)
chain: SKTRGMEPPWGYQNRTLRSITSPLVAHRLKPIRQKTKKAVVSILDSEEVCVELVKEYASQEYVKEVLQISSDGNTITIYYPNGGRGFPLADRPPSPTDNISRYSFDNLPEKYWRKYQYASRFVQLVRSKSPKITYFTRYAKCILMENSPGADFEVWFYDGVKIHKTEDFIQVIEKTGKSYTLKSESEVNSLKEEIKMYMDHAN
B5: His-MBP PLK4 PBD double mutant K685/711A (domain or fragment, UniProt O00444 571-970)
chain: B1 chain with K115A, K141A
B6: His-MBP PLK4 PBD Δ774-813 (domain or fragment, UniProt O00444)
chain: SKTRGMEPPWGYQNRTLRSITSPLVAHRLKPIRQKTKKAVVSILDSEEVCVELVKEYASQEYVKEVLQISSDGNTITIYYPNGGRGFPLADRPPSPTDNISRYSFDNLPEKYWRKYQYASRFVQLVRSKSPKITYFTRYAKCILMENSPGADFEVWFYDGVKIHKTEDFIQVIEKTGKSYTLKSESEVNSLKEEIKMYMDHANKALSPPPSVDSNYPTRERASFNRMVMHSAASPTQAPILNPSMVTNEGLGLTTTASGTDISSNSLKDCLPKSAQLLKSVFVKNVGWATQLTSGAVWVQFNDGSQLVVQAGVSSISYTSPNGQTTRYGENEKLPDYIKQKLQCLSSILLMFSNPTPNFH

molecular target: T1, GST-CEP152 domain 1 (D1, residues 1-512) (human); assay: pull-down

Binder | binding
B1 | binds
B2 | binds
B3 | no binding
B4 | no binding
B5 | no binding
B6 | no binding
